Data source: PubChem BioAssay AID1259254 (NCATS, 2017)
Screen: 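Genome-wide screen for genes that prevent DNA re-replication in cancer cells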 (primary screen). Cell system: human HCT116 colorectal cancer cells. Reagent: single siRNA against human genes. Time to read-out: 3 days. Read-out: 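Nuclei stained with Hoechst and imaged; cell-cycle phase assigned by DNA content; G2 share scaled per plate, non-targeting siRNA 0%, GMNN siRNA 100%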. Reading the numbers: G2 robust z-score: higher = more G2 cells, more excess DNA replication. Call rule: 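An siRNA counts as active if its G2 robust z-score lies at least 5 MADs above the screen median; here such calls match roughly 38% of GMNN control or more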.
In all, the deposit lists about 59,000 reagents; this is an unselected part. About 1,550 of all reagents (2.6%) were called active. 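G2 share is only a proxy for re-replication; each gene was hit by three separate siRNAs, and active genes were retested.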 Reagents against one gene are numbered here. Not all columns of the deposit are shown. Not given: the amount of reagent.

G2 robust z-score, by target gene and reagent
POLR2G (RNA polymerase II subunit G): #1 1.07 inactive; #2 5.34 active; #3 5.61 active
ZNF688 (zinc finger protein 688): #1 0.758 inactive; #2 1.59 inactive; #3 0.747 inactive
RCVRN (recoverin): #1 1.3 inactive; #2 -0.357 inactive; #3 -0.485 inactive
H2AC15 (H2A clustered histone 15): #1 -0.324 inactive; #2 -0.503 inactive; #3 -0.753 inactive
SPAG17 (sperm associated antigen 17): #1 -0.368 inactive; #2 -0.461 inactive; #3 0.125 inactive
ZNF627 (zinc finger protein 627): #1 0.724 inactive; #2 0.288 inactive; #3 -0.332 inactive
DHTKD1 (dehydrogenase E1 and transketolase domain containing 1): #1 -0.741 inactive; #2 1.13 inactive; #3 -0.829 inactive
ACSM4 (acyl-CoA synthetase medium chain family member 4): #1 0.179 inactive; #2 5.8 active; #3 0.521 inactive
FBXW10B (F-box and WD repeat domain containing 10B): #1 0.483 inactive; #2 -0.0188 inactive; #3 0.442 inactive
TIAM1 (TIAM Rac1 associated GEF 1): #1 -0.829 inactive; #2 -0.669 inactive; #3 0.212 inactive
CDC73 (cell division cycle 73): #1 -0.715 inactive; #2 -0.629 inactive; #3 -0.789 inactive
LPAR3 (lysophosphatidic acid receptor 3): #1 0.0959 inactive; #2 -0.0399 inactive; #3 -0.065 inactive
MCM4 (minichromosome maintenance complex component 4): #1 1.2 inactive; #2 -0.855 inactive; #3 -1.04 inactive
TMT1B (thiol methyltransferase 1B): #1 0.13 inactive; #2 0.264 inactive; #3 2.69 inactive
SSTR2 (somatostatin receptor 2): #1 5.04 active; #2 0.955 inactive; #3 1.92 inactive
MRPS11 (mitochondrial ribosomal protein S11): #1 -0.58 inactive; #2 -0.216 inactive; #3 -0.827 inactive
CYP3A43 (cytochrome P450 family 3 subfamily A member 43): #1 -0.0372 inactive; #2 -1.22 inactive; #3 0.32 inactive
IGDCC3 (immunoglobulin superfamily DCC subclass member 3): #1 -1.49 inactive; #2 -0.267 inactive; #3 0.721 inactive
FANCD2 (FA complementation group D2): #1 2.78 inactive; #2 5.78 active; #3 -0.872 inactive
ISCU (iron-sulfur cluster assembly enzyme): #1 -0.219 inactive; #2 1.41 inactive; #3 0.533 inactive
KRABD3 (KRAB domain containing 3): #1 -0.744 inactive; #2 -0.402 inactive; #3 1.54 inactive
TMEM59L (transmembrane protein 59 like): #1 -1 inactive; #2 0.31 inactive; #3 -0.912 inactive
KLHDC9 (kelch domain containing 9): #1 0.127 inactive; #2 -0.268 inactive; #3 -0.296 inactive
